Test results: the supplement of paper PMC3334620
Whole data set: some 33,000 sequences, median “E-score (-0.5 to 0.5)” near -0.0034, cut for the highest 2% near 0.25. The list shows a part of the results.

target: T1, Yap3 (UniProt P38749); assay: PBM E-score (8-mer binding enrichment) (E-score (-0.5 to 0.5)); higher = stronger / more preferred TF binding; details: protein concentration: 100 nM; construct: GST-full length
T1 sequence: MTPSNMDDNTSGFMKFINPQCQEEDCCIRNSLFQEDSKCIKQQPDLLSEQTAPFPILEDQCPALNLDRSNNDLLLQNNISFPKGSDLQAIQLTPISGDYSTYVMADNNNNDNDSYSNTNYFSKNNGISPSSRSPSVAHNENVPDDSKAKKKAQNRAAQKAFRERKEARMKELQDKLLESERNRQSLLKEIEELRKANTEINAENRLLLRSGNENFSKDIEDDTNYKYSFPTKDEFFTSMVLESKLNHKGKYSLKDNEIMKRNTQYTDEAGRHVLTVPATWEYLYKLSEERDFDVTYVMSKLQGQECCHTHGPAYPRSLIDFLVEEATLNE
In short: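 The E-score, a modified Wilcoxon-Mann-Whitney statistic, was computed by the Universal PBM Analysis Suite for every ungapped eight-base word pooled with its reverse complement. Scans behind it were normalised with masliner after bound GST-tagged yeast transcription factors were detected with fluorescent anti-GST. The proteins, at about 100-200 nM, had been applied to universal all-10-mer Agilent arrays made double-stranded by primer extension.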

| Sequence | PBM E-score |
| --- | --- |
| GAAACTTA | 0.177 |
| CGTAGAAA | 0.0328 |
| AAACTTTA | 0.21 |
| AATCTGGT | 0.0811 |
| CACAACAA | 0.0683 |
| CGTACTAC | 0.0488 |
| AGCCGGAT | -0.0454 |
| CCTGAGGA | -0.0633 |
| CAAGTGGA | 0.0657 |
| ACACCCGC | -0.0407 |
| TAGTCCGA | 0.0255 |
| GCTCAGCA | -0.0726 |
| GACCAAAC | 0.0224 |
| AAGTATTA | 0.142 |
| CTTGGACA | -0.0572 |
| AAAAACAT | 0.159 |
| AGCCCTAT | -0.197 |
| CTTACACC | -0.184 |
| AATAGGTG | -0.0377 |
| ACCCCTAC | -0.151 |
| GTGGTTGA | -0.0186 |
| TGCGGCCA | -0.116 |
| AGATGGAA | -0.0109 |
| AATTTAGT | 0.21 |
| CGAGCAGC | 0.12 |

Some of the entries so far, with tabs.
Sequence	PBM E-score
GAAACTTA	0.177
CGTAGAAA	0.0328
AGCCGGAT	-0.0454
GACCAAAC	0.0224
CTTGGACA	-0.0572
CTTACACC	-0.184

(continued)

| Sequence | PBM E-score |
| --- | --- |
| GAGGATCA | -0.0991 |
| AAGGCGTA | -0.0608 |
| CGGTTCGC | -0.184 |
| CCAAATGG | -0.133 |
| AGCCTTGC | -0.106 |
| ACTATGTC | -0.0812 |
| AGTCAGGG | -0.185 |
| ATAGGCTG | 0.0796 |
| GCTTCGAC | -0.0385 |
| ACGTAGGG | -0.241 |
| CACGGGAA | -0.0634 |
| CCCCCACC | -0.368 |
| ATACTCTC | 0.197 |
| GAGAACCA | 0.0914 |
| ACTCTGAG | -0.0751 |
| CCCCTTTA | -0.247 |
| CGGTCGTC | -0.242 |
| ACCATGGT | -0.192 |
| CCCAGACG | -0.144 |
| GGCGGAAA | -0.0177 |
| AGGCTCAG | -0.187 |
| CCTAGGTA | 0.0302 |
| CGGGAAAC | 0.0165 |
| ATACCCCC | -0.126 |
| ACTTCATG | -0.109 |

In a second layout: entries from further up.
Sequence | PBM E-score
CGGTTCGC | -0.184
AGTCAGGG | -0.185
CACGGGAA | -0.0634
ACCATGGT | -0.192

(next part)

| Sequence | PBM E-score |
| --- | --- |
| CACCCGTA | 0.0758 |
| AAATTCAT | 0.0786 |
| ATCGTCCG | -0.00057 |
| AATCCATG | 0.11 |
| ACGCGCCG | -0.0226 |
| AGAGGAGC | -0.172 |
| CCGCGAAC | -0.0464 |
| AACAGTTA | 0.12 |
| ATTGCAGA | 0.13 |
| CCGTAACC | -0.0335 |
| AGGGCACT | -0.276 |
| GCTACGCC | -0.314 |
| GAGGGAAA | -0.148 |
| ATCTCTTG | -0.00997 |
| CTCCCATA | -0.0713 |
| CCTCATGC | -0.112 |
| CACCCTGG | -0.234 |
| ACAGCCAC | -0.0261 |
| CGCTAGAG | -0.0581 |
| AACGGATC | 0.216 |
| CGATTAGC | -0.102 |
| ATCATTCA | 0.17 |
| CAAGGGTG | -0.0956 |
| GAGGTGTA | -0.0903 |
| CTACCGTC | -0.0521 |

| Sequence | PBM E-score |
| --- | --- |
| CTAGAGAG | -0.139 |
| GGAACGAA | 0.149 |
| ACCCCTTA | -0.232 |
| GTGTAAGA | -0.0287 |
| CTTCAGGC | -0.153 |
| ACTTTGCT | 0.0198 |
| CGGGTTAC | 0.0307 |
| TAAGGTAA | 0.231 |
| GCTGCAGC | 0.09 |
| GCGGATTA | 0.151 |
| AATTCGGC | 0.0272 |
| GCCTTTAA | 0.0855 |
| GAGAGAGA | -0.133 |
| CGTCATAC | 0.173 |
| GCTTCGAA | 0.0601 |
| AGACAACT | 0.158 |
| CTGCGCGA | -0.0222 |
| ATATGTGG | 0.135 |
| AATCGACC | -0.00549 |
| ATGGGGAA | 0.102 |
| GTGATCAC | 0.00406 |
| AAGTAAGG | 0.19 |
| TACTCGAA | -0.0829 |
| AAAGCATC | 0.0884 |
| AGTTCCCC | -0.17 |

| Sequence | PBM E-score |
| --- | --- |
| AAATCTGG | 0.102 |
| AGCTGAAC | -0.125 |
| GGTAAACA | 0.141 |
| AGTGAAGC | -0.0889 |
| AAGGGGGC | -0.0945 |
| CGCACAGC | -0.154 |
| CGCGGATC | -0.213 |
| AACGGTAT | 0.106 |
| CCCAGTAC | -0.177 |
| CCTGCATA | -0.0619 |
| AGGACTTA | -0.121 |
| AATGGGTA | 0.123 |
| GCCCCTCC | -0.243 |
| GTGTCGCA | -0.0188 |
| GCGTTACC | -0.116 |
| CCGCGAGC | -0.16 |
| GGGAGACA | -0.112 |
| AATGTGCC | -0.0237 |
| CGAGTGAC | -0.163 |
| CCCGCGTC | 0.00331 |
| TCCTTTAA | -0.0127 |
| GAGTAGCC | -0.159 |
| AGATTGCA | -0.11 |
| CCGGGCAA | -0.194 |
| CGTAGATA | 0.0847 |

| Sequence | PBM E-score |
| --- | --- |
| ATATAATG | 0.2 |
| ACTGTGGG | -0.0714 |
| CACCAGTC | -0.238 |
| ATCGTAGG | -0.0234 |
| GCGACACA | 0.0116 |
| CCTAACCA | 0.0402 |
| AGAGACCG | -0.152 |
| ATTGTCAC | 0.0499 |
| GCCCAATA | 0.0672 |
| GGTCGTTA | 0.0836 |
| CCCCGCTA | -0.0173 |
| GGGTAGCA | -0.108 |
| TCACCAGA | -0.226 |
| GTGCCACA | -0.0385 |
| ATGTTGCA | 0.0661 |
| AAAGGTCA | 0.0579 |
| TACAATAA | 0.0961 |
| GGGACGAC | -0.162 |
| AGCGACGA | -0.145 |
| TACCATAA | 0.118 |
| ACTATCCC | -0.176 |
| CGGGTAAG | -0.0764 |
| CGTTAAAA | -0.059 |
| AAGAGCGC | 0.0795 |
| ACCCCCGG | -0.349 |

| Sequence | PBM E-score |
| --- | --- |
| GGAACACA | 0.023 |
| AAAGCGGA | -0.0859 |
| CACTGCCC | -0.135 |
| AGGCGGCG | -0.215 |
| CATCCGAA | 0.0482 |
| CGGCCGTC | -0.156 |
| CTTGGAGC | -0.106 |
| GCACCTCC | -0.276 |
| GCCGTATA | 0.141 |
| CATGGAGC | -0.153 |
| CCAAGAAG | -0.0368 |
| CCGCATAA | 0.243 |
| ACTATTCG | 0.231 |
| CTGACATA | 0.0984 |
| CGGCACTA | 0.0257 |
| AAATCTTA | 0.124 |
| CTTTCGTC | 0.01 |
| CTGAGAGC | -0.199 |
| AGAGGTCC | -0.148 |
| ACTATAAC | 0.091 |
| CGAACTAC | 0.0201 |
| GATTGCAA | 0.1 |

Nothing new here: entries from further up.

| Sequence | PBM E-score |
| --- | --- |
| AAACTTTA | 0.21 |
| AATCTGGT | 0.0811 |
| CACAACAA | 0.0683 |
| CGTACTAC | 0.0488 |
